Assay results: PubChem BioAssay AID1508600 (Functional Genomics Laboratory (NCATS/FGL), 2020)
In all, about 53,000 sequences went through this assay and about 3,700 (7%) were called active.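 Rule for the calls: active = gene knockdowns whose robust z-score for IL-1 alpha signal is at least 2 or at most -2, so actives lie on both sides; inactive = the rest.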 This is one part of the list.

Assay: Components of the Cytosolic LPS Sensing Pathway: Gene Identification via Genome-wide siRNA Screen;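 note: robust z of the log signal after scaling to non-targeting control siRNA wells of the plate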
Settings: RAW264.7 macrophages, IL-1a HTRF, actives lie on both sides, screened at 100 nM (by protocol), cells primed 5 h with Pam3CSK4 first
Outline: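 Cells (RAW264.7, 1×10^4 per well) were transfected with siRNA at 100 nM and cultured 48h at 37 degrees C. Pam3CSK4 was added for 5 hours; LipidA transfection followed for 24 hour. IL-1a was then measured by HTRF.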

z-score, active:
GGCUACAAGUUGGUAAUCUTT against Pnkp 3.36
GGAACCUUCUCCAAAGCAATT against Rpgrip1 -2.45
GGAUUCAGGGAACAGCAAUTT against Ntrk3 -3.08
CGUGGAGAUCAUCCACUCATT against Inf2 -2.44
GACCUUCCAGGUCAAGUUGTT against Plcg1 2.56
GCACUGUUUGUGCAAACAATT against C130071C03Rik -2.22

z-score, inactive:
GCGUAUUACGAAAGAUGUGTT against Prpf18 -0.568
GGUUCUUUCCUUGUUUUACTT against Olfr448 0.113
GCUGUGUUAGAAAGCAGGCTT against 4931406H21Rik 0.927
GGACUCCUAAGUGUAACAGTT against 9130221H12Rik 0.68
GCUGAGAGACUUGUGAAAUTT against Ndufb11 1.06
GGAUUAGAAGAACUAAGAGTT against Ppp1r42 -0.0726
GGCACGCUUAGCCAAAUGUTT against Herc2 -0.759
GCCAGCAUAGCAGAAAAUATT against Usp25 -0.761
GGGAUUUGCUGUGAGAAUUTT against Mpp6 -1.72
GCUUAAAACCAUGUCUGAUTT against Asap1 1.14
GGGUUCAGGACAAGUUAAATT against Gpkow -0.11
GGCAUCAACUUCGUGCUAATT against Olfr541 1.77
GCUCUGUAAACCAUGUAAGTT against Slc14a1 -0.441
GGCGGGAAAUGUCUUUAUCTT against Rpl22 0.743
GGUGAUAGUCGUUUUCUAGTT against Wee1 -0.785
GGAGAGUGCAAGGAAGAAGTT against Haus8 0.433
CCCACAGGGAUUUAUUUAUTT against Slc37a1 -0.362
GGAGAUUCAGAAAAAGCUGTT against Stmn2 -0.238
GAUCACUGGCAAGCACGAATT against Hspb1 -1.58
GCAGGUUUGAUAUAAAAUCTT against Uba2 0.162
GGCAAAAUCAUGUGGUUGATT against Dlat -0.6
GGCUAAGAAUGAGACUGGUTT against Abcg4 -0.0869
GGCAGACAGAGGGUAAAAATT against Slc24a1 -0.956
GGCAGGUCUUACGCAAAACTT against Csf1r 0.837
GCUGUCAAGCUAUAUGGCGTT against Llgl2 0.348
GCCUUGGACAAAAACACUATT against Ryk -0.917
GGCUGAGAACUUUUUAUUUTT against Dll3 0.153
GCUACAAUGUCUUCUGGUCTT against Mogs 1.43
GGCCAAGAAGGUACGUUUCTT against Dcx 0.373
GGUUAUUGAAGAUGAUAGATT against Sec24c -1.16
GGUCAAGAUCCGAAGCUACTT against Cntn2 -0.749
GGUCUCAAGUUGAAAGAAATT against Cemip -0.892
GGUGUUUCUGUUCUGAUUCTT against Olfr703 0.0332
GCUCAAAACAAUCCACGCCTT against 1700006J14Rik -0.47
CCAAACACUAUGGCCUGAUTT against Dagla 0.548
GGGCACAAGAUCUCAAUUUTT against B4galt7 -0.32
GCCAUUCUCACUCCUAGUUTT against Foxj2 -1.2
GGCCAUCGAAAAGAAUGUGTT against Prkar1a -0.5
UUUAGCUUUCUUCUGGCUCTT against Olfr237 0.035
GCUAGCAUAGUCAAAAACUTT against Ptges -0.45
GCCUGAGGAUCUAUAGAUATT against Prss29 -1.36
GGAAGAAAUUCAAAAACUGTT against Golga5 -0.653
GGAAGAACAGACUUGCCUGTT against Sh3bp1 -0.665
GGACCAUAAUGGCAAUAAATT against ccdc198 1.08
GGGCUUGAUUGAAUCGGCUTT against Rufy3 0.163
GAUUCAACCUGUCCAAGCUTT against Naa80 -0.726
CGAGGCUAACAAACUCAUATT against Guca2a 0.883
GGUGAUUGUGCACCUGUUGTT against Tex14 0.622
GGUGGAAGAACUCUGUCAGTT against Rnf40 0.838
GCCCAAUAGAAGCUGGAUGTT against Tex29 -1.99
CGGAGUAUUUCUAUCCACGTT against Gas6 -1.62
GGAUGGAGAUGAAAUUAUCTT against Atp8a2 -0.375
GGAAUCCUUUGGUUAUUCATT against Hs6st1 0.876
GCCAAGUUAGAAGUUAGAATT against Mrpl42 -0.925
CGAAAACGAGAUCACCAAATT against E2f7 -0.347
GGAUGAGUGCUCCAAGAUCTT against Alkbh5 -0.4
GCCUCAGCAAGUGUUAGAUTT against Map4 0.291
GGAUGAUGUGACAGAGACCTT against Trpv3 -0.0206
CCGAUUUGAAAAGCUAAUGTT against Fmnl1 1.21
CGUUGAUUUCCAAAGCUGUTT against Kcnc2 0.897
CCAUCCUAGCUGUGGUAAGTT against Olfr554 1.32
CCAAUAUCACAUUUGCUUUTT against Crb1 -0.568

A section of the results above:
z-score, inactive:
GAUUCAACCUGUCCAAGCUTT against Naa80 -0.726
CGAGGCUAACAAACUCAUATT against Guca2a 0.883
GGUGAUUGUGCACCUGUUGTT against Tex14 0.622
GGUGGAAGAACUCUGUCAGTT against Rnf40 0.838
